Reference: PMC8497506

Assays:
Assay in all cases: plate binding assay (ELONA)
[1] = target: Myoglobin (UniProt P68082); settings: 10 mM HEPES, 5 mM MgCl2, 5 mM KCl, pH 7.4, 0.1% Tween-20, 1% sheared salmon sperm DNA, 300 uM dextran sulfate, 60 min, temperature not stated, commercial protein
[2] = target: Her2-his (UniProt P04626); settings: B1 probe binding twofold higher than this control; handle 3' iSp9-DBCO coupled to azide-PEG; 10 mM HEPES, 5 mM MgCl2, 5 mM KCl, pH 7.4, 0.1% Tween-20, 1% sheared salmon sperm DNA, 300 uM dextran sulfate; 60 min; temperature not stated; commercial protein; protein details: His tag; label: fluorescent FluoSphere
[3] = system: his-tagged thrombin; settings: streptavidin-HRP detection; 5' biotin; 10 mM HEPES, 5 mM MgCl2, 5 mM KCl, pH 7.4, 0.1% Tween-20, 1% sheared salmon sperm DNA, 300 uM dextran sulfate; 60 min; temperature not stated; protein details: His tag; label: streptavidin conjugates or HRP; single-stranded DNA

Q: Does “CAAGCAGAAGACGGCATACGAGATCATGCTTCCCCAGGGAGATGGTTTGCCGGTGGGCAGGTTTAGGGTCTGCTCGGGATTGCGGAGGAACATGCGTCGCAAACGTGTAGATCTCGGTGGTCGCCGTATCATT / ATCTCGTATGCCGTCTTCTGCTTG [P7-B1 annealed to DBCO-P7 handle on Qdot 655]” bind ([1]; little off-target binding, handle 3' iSp9-DBCO coupled to azide-PEG, label: Qdot 655)?
A: binds more weakly

Q: Does “CAAGCAGAAGACGGCATACGAGATCATGCTTCCCCAGGGAGATGGTTTGCCGGTGGGCAGGTTTAGGGTCTGCTCGGGATTGCGGAGGAACATGCGTCGCAAACGTGTAGATCTCGGTGGTCGCCGTATCATT / ATCTCGTATGCCGTCTTCTGCTTG [P7-B1 annealed to DBCO-P7 handle on nanoparticle]” bind ([1]; off-target, little non-specific binding, handle 3' iSp9-DBCO coupled to azide-PEG, label: fluorescent FluoSphere)?
A: binds more weakly

Q: Does “CAAGCAGAAGACGGCATACGAGATCATGCTTCCCCAGGGAGATGGTTTGCCGGTGGGCAGGTTTAGGGTCTGCTCGGGATTGCGGAGGAACATGCGTCGCAAACGTGTAGATCTCGGTGGTCGCCGTATCATT [DBCO-B1 directly conjugated to nanoparticle]” bind ([1]; lower than on-target, 5' DBCO-C7 coupled to azide-PEG, label: fluorescent FluoSphere, single-stranded DNA)?
A: binds more weakly

Q: Does “CAAGCAGAAGACGGCATACGAGATTCAAGTGGTCATGTACTAGTCAA / ATCTCGTATGCCGTCTTCTGCTTG” bind [2]?
A: binds more weakly

Q: Does “CATGCTTCCCCAGGGAGATGGTTTGCCGGTGGGCAGGTTTAGGGTCTGCTCGGGATTGCGGAGGAACATGCGTCGCAAAC [Biotin-B1]” bind [3]?
A: binds

For some assays here: Weaker means in comparison with the reference protein, sequence or condition of that experiment. For some assays here: The exact form of at least one protein or probe is not confirmed. For some assays here: At least one verdict rests on a figure or table, not on a statement of the authors.
